Data reported in paper PMC7618075.
No constants are given. Whether binding was seen depends on the method and setting. Some binding calls cover weakened binding; strength is not graded here.

Target: T1, recombinant human CASPR2 protein (human) (UniProt Q9UHC6)
T1 sequence: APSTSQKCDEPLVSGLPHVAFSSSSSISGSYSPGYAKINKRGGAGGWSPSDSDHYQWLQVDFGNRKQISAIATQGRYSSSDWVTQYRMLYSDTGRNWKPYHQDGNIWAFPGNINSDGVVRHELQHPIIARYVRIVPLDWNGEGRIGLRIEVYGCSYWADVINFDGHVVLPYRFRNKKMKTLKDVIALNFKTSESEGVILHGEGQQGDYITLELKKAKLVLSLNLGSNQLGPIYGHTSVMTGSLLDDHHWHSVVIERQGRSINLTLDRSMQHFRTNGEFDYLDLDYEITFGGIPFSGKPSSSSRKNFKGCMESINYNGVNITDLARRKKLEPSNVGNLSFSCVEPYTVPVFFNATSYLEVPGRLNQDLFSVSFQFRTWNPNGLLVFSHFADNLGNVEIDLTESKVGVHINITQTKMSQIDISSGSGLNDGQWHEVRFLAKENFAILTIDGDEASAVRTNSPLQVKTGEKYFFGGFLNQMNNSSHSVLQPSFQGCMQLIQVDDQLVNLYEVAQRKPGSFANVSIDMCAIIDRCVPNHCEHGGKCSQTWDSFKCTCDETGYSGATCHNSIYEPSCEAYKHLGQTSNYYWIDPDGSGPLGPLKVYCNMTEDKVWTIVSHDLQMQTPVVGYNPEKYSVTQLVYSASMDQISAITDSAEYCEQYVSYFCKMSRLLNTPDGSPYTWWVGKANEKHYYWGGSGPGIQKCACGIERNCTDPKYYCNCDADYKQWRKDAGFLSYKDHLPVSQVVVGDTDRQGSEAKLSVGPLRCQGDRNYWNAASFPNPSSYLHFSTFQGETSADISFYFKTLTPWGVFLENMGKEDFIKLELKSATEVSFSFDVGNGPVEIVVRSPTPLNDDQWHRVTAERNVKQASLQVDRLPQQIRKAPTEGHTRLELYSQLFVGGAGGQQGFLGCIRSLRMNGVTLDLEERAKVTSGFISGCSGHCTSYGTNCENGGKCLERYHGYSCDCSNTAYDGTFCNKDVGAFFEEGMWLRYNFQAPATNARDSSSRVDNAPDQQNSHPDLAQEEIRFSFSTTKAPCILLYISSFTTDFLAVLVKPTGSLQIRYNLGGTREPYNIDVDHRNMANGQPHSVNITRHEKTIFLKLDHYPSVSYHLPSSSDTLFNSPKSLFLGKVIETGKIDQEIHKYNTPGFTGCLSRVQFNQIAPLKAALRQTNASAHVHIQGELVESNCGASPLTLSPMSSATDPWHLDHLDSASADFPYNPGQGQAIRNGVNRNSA
Experiment: ELISA; solid phase binding assay; 100 ng/well CASPR2 coated in 20 mM Tris pH 8.0, 100 mM NaCl, 5 mM CaCl2; 100 ng contactin 2 for 1 h at RT; CASPR2 mAbs or isotype control then added in dilution series; contactin 2 detected with mouse anti-human contactin 2 antibody and HRP anti-mouse IgG; both purified

B1: contactin 2 (protein, UniProt Q02246 31-1012)
chain: SQTTFGPVFEDQPLSVLFPEESTEEQVLLACRARASPPATYRWKMNGTEMKLEPGSRHQLVGGNLVIMNPTKAQDAGVYQCLASNPVGTVVSREAILRFGFLQEFSKEERDPVKAHEGWGVMLPCNPPAHYPGLSYRWLLNEFPNFIPTDGRHFVSQTTGNLYIARTNASDLGNYSCLATSHMDFSTKSVFSKFAQLNLAAEDTRLFAPSIKARFPAETYALVGQQVTLECFAFGNPVPRIKWRKVDGSLSPQWTTAEPTLQIPSVSFEDEGTYECEAENSKGRDTVQGRIIVQAQPEWLKVISDTEADIGSNLRWGCAAAGKPRPTVRWLRNGEPLASQNRVEVLAGDLRFSKLSLEDSGMYQCVAENKHGTIYASAELAVQALAPDFRLNPVRRLIPAARGGEILIPCQPRAAPKAVVLWSKGTEILVNSSRVTVTPDGTLIIRNISRSDEGKYTCFAENFMGKANSTGILSVRDATKITLAPSSADINLGDNLTLQCHASHDPTMDLTFTWTLDDFPIDFDKPGGHYRRTNVKETIGDLTILNAQLRHGGKYTCMAQTVVDSASKEATVLVRGPPGPPGGVVVRDIGDTTIQLSWSRGFDNHSPIAKYTLQARTPPAGKWKQVRTNPANIEGNAETAQVLGLTPWMDYEFRVIASNILGTGEPSGPSSKIRTREAAPSVAPSGLSGGGGAPGELIVNWTPMSREYQNGDGFGYLLSFRRQGSTHWQTARVPGADAQYFVYSNESVRPYTPFEVKIRSYNRRGDGPESLTALVYSAEEEPRVAPTKVWAKGVSSSEMNVTWEPVQQDMNGILLGYEIRYWKAGDKEAAADRVRTAGLDTSARVSGLHPNTKYHVTVRAYNRAGTGPASPSANATTMKPPPRRPPGNISWTFSSSSLSIKWDPVVPFRNESAVTGYKMLYQNDLHLTPTLHLTGKNWIEIPVPEDIGHALVQIRTTGPGGDGIPAEVHIVRNGGTSMMVEN
binding: binds
